According to publication doi:10.1101/2021.02.15.430920:
Residue numbers refer to the chain shown, from its start. These are yes or no findings as the source states them, for the method shown. Some entries that bind do so weakly or less than the wild type. For some of these results: Where a sequence is shown, tags or fusion partners need not be part of it.

Legend:
[1] = biological target: T1, A. thaliana RPN10, full-length, yeast two-hybrid fusion (A. thaliana) (UniProt P55034); test: two-hybrid
T1 sequence: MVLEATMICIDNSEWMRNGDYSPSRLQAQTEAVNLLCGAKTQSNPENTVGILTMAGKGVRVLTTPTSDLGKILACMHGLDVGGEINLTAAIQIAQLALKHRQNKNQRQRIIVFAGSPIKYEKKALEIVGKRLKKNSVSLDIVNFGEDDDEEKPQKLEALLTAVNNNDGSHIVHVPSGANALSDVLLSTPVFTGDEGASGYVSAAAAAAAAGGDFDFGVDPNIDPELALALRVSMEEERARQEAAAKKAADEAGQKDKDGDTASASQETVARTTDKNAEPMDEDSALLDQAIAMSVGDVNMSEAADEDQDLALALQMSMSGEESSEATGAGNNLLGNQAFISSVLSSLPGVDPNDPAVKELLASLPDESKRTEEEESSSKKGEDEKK

[2] = biological target: T2, A. thaliana RPN10_38GA39->HS (A. thaliana) (UniProt P55034); test: two-hybrid
T2 sequence: T1 sequence with G38H, A39S

[3] = biological target: T3, A. thaliana RPN10_56GKG58->K (A. thaliana) (UniProt P55034); test: two-hybrid
T3 sequence: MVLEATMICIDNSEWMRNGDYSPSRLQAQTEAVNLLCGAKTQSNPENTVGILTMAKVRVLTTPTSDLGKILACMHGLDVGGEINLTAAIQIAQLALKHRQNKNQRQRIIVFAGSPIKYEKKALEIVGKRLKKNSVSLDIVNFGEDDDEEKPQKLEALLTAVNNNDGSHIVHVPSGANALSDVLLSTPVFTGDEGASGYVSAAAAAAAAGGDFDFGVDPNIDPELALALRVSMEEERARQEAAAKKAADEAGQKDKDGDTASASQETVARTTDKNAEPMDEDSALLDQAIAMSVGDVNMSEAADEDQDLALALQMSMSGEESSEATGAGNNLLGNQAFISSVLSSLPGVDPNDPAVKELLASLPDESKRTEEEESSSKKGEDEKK

[4] = biological target: T4, His-SUMO-tagged vWA domain of AtRPN10 with 38GA39->HS (A. thaliana) (UniProt P55034); test: pull-down
T4 sequence: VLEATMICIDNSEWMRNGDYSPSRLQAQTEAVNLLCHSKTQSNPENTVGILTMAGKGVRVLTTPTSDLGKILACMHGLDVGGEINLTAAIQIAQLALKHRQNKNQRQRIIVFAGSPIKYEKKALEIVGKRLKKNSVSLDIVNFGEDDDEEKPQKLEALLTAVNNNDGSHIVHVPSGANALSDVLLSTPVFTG

B1: A. thaliana RADIATION …23 (RAD23B) protein (protein, UniProt Q84L33 1-371)
chain: MKLTVKTLKGSHFEIRVLPSDTIMAVKKNIEDSQGKDNYPCGQQLLIHNGKVLKDETSLVENKVTEEGFLVVMLSKSKSGGSAGQASVQTSSVSQPVSATTSSTKPAAPSTTQSSPVPASPIPAQEQPAAQTDTYGQAASTLVSGSSLEQMVQQIMEMGGGSWDKETVTRALRAAYNNPERAVDYLYSGIPQTAEVAVPVPEAQIAGSGAAPVAPASGGPNSSPLDLFPQETVAAAGSGDLGTLEFLRNNDQFQQLRTMVHSNPQILQPMLQELGKQNPQLLRLIQENQAEFLQLVNEPYEGSDGEGDMFDQPEQEMPHAINVTPAEQEAIQRLEAMGFDRALVIEAFLACDRNEELAANYLLENSGDFED
[1]
  binding: binds
[2]
  binding: binds
[3]
  binding: binds

B2: ZnF domain of AtSPL5 (Ser60-Leu127), recombinant (domain or fragment, UniProt Q9S758 60-127)
chain: SRLCQVDRCTVNLTEAKQYYRRHRVCEVHAKASAATVAGVRQRFCQQCSRFHELPEFDEAKRSCRRRL
[4]
  binding: no binding (tested: 20 uM)
